In patent publication US20020081719:

Test system: PPARγ/RXR heterodimer
Assay: EMSA
Settings: dimeric complex only; 100 mM KCl, 40 mM Hepes pH 7.5, 0.5 mM ZnCl2, 4 C; protein in a lysate after overexpression; label: 32P

“CAAAACTAGGTCAAAGGTCA (double strand) [DR1]”: binds.

Construct, isoform or probe ends are uncertain for at least one entry. At least one result comes from cells or an extract, where the contact may be indirect.
